± gives the standard deviation. This is a selection; strong and weak results do not stand in their true shares. The uncertainty is large for many entries. The list shows a part of the results.
Assays:
[1] = tested on: MIWI (PIWIL1) piRISC loaded with L1MC piRNA (30 nt); test: pre-steady-state target cleavage rate (min^-1); higher = faster piRNA-guided slicing of the target; conditions: guide: L1MC piRNA 5'p-UAACUAAAUACUAUGCAAGCUGUAGGUCCU
Outline: (§1)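 Active affinity-purified piRISC (1 nM) loaded with one synthetic guide was mixed with a transcribed, DNA-blocked target RNA library (0.1 nM), with or without 500 nM GTSF1 partner protein, in HEPES–potassium acetate buffer at 33 °C for 0–8 or 0–960 min. Uncleaved targets were sequenced, normalised to depth and to weakly complementary targets, and pooled across three trials, with k3 capped at 0.0001 min^-1. The pre-steady-state cleavage rate was determined with a burst-and-steady-state fit.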

[2] = tested on: EfPiwi piRISC loaded with L1MC piRNA (26 nt); test: pre-steady-state target cleavage rate (min^-1); guide: L1MC piRNA 5'p-UAACUAAAUACUAUGCAAGCUGUAGG; MIWI and MILI are mouse PIWI proteins and EfPiwi is from a freshwater sponge; tags in brackets are library labels; higher = faster piRNA-guided slicing of the target
Outline: as §1

[3] = auxiliary factor: none (no GTSF1)
[4] = auxiliary factor: 500 nM Ephydatia muelleri Gtsf1
[5] = auxiliary factor: none (no Gtsf1)
[6] = auxiliary factor: 500 nM mouse GTSF1

| Sequence | pre-steady-state target cleavage rate [1, 3] | pre-steady-state target cleavage rate [2, 4] | pre-steady-state target cleavage rate [2, 5] | pre-steady-state target cleavage rate [1, 6] |
| --- | --- | --- | --- | --- |
| UCCUGGAUGUCGAAGCAUACUAUUUUGUUA | 0.000272 ± 0.015 | < 0.0001 | – | – |
| UCCUGGAUGUCGUUGCAUAGUAUUUAGUAA | 0.00203 ± 0.0037 | 0.000508 ± 0.013 | – | – |
| UCCUGGAUGUCCUUGCUUAGUUUUUAGUUA | 0.0026 ± 0.0039 | 0.000167 ± 0.019 | – | – |
| UCCUGGAUGUCCUUCCAUAGUAUUUUGUUA | 0.000534 ± 0.011 | 0.000211 ± 0.014 | – | – |
| UCCUGGAUCAGCUUCCUUAGUAUUUAGUUA | 0.00161 ± 0.0026 | 0.00181 ± 0.0022 | – | – |
| UCCUGGAUGUCGAAGCAUACAUUUUAGUUA | 0.00024 ± 0.027 | 0.000204 ± 0.011 | – | – |
| UCCUGGAUGUCGAUGCAUUCUAUUUAGUUA | 0.000478 ± 0.0088 | 0.000141 ± 0.026 | – | – |
| UCCUCCUAGUGCUUGCAUAGUAUUUUCAAA | 0.00151 ± 0.0024 | 0.00233 ± 0.003 | – | – |
| UCCUCCUACAGCUACGAUAGUAUUUAGAAA | 0.00028 ± 0.01 | 0.000989 ± 0.0068 | – | – |
| UCCUGGAUCAGCUACGAUAGUAUUUUCAAA | 0.000164 ± 0.02 | – | 0.000598 ± 0.012 | – |
| UCCUGGAUGUCGAACGUUAGUAAAUAGUUA | 0.000156 ± 0.035 | – | < 0.0001 | – |
| UCCUGGAUGAGGAAGCAUAGUAUUUACAAA | 0.000765 ± 0.0083 | 0.000279 ± 0.016 | – | – |
| UCCUGGAUGAGCUUGCAUAGUUAUUAGAAA | 0.00108 ± 0.0066 | 0.00178 ± 0.0044 | – | – |
| UCCUGGUACAGCUUGCAUAGAUAUUUAGUUA | 0.00142 ± 0.0069 | 0.00235 ± 0.004 | – | – |
| UCCUGGUACACCUUGCAUAGUAUUUACAAA | 0.00274 ± 0.0032 | 0.00118 ± 0.0037 | – | – |
| UCCUGGAUGUCCUAGCAUAGUAUUUUGUUA | 0.00132 ± 0.006 | 0.000398 ± 0.0076 | – | – |
| UCCUCCUACAGCUUGCAUAGAUAUUUAGUUA | 0.00136 ± 0.0053 | 0.00501 ± 0.0032 | – | – |
| UCCUGGAUGUCGAUGCAUAGUAAUUUAGUUA | 0.00115 ± 0.0063 | 0.000834 ± 0.0074 | – | – |
| UCCUGCUACAGCUUGCAUAGAUAUUAGAAA | 0.000104 ± 0.037 | 0.0015 ± 0.004 | – | – |
| UCCUGGAUGUCGAAGCAUAGUAUUUUGUUA | 0.00087 ± 0.0045 | 0.0012 ± 0.0049 | – | – |

| Sequence | pre-steady-state target cleavage rate [1, 3] | pre-steady-state target cleavage rate [2, 4] | pre-steady-state target cleavage rate [2, 5] | pre-steady-state target cleavage rate [1, 6] |
| --- | --- | --- | --- | --- |
| UCCUGGAUGUCCUUCCUUAGUAUUUAGUUA | 0.000665 ± 0.0097 | 0.000881 ± 0.0065 | – | – |
| UCCUGGAUGUCGUUGCAUAGUUUUAAGUUA | – | 0.000325 ± 0.013 | – | 0.000342 ± 0.028 |
| UCCUGGAUGUCGAACGUAUCUAUUUUCUUA | – | < 0.0001 | – | 0.000332 ± 0.013 |
| UCCUGGAUGUCCAAGCAUAGUAUUUAGUAA | 0.00147 ± 0.0062 | 0.00145 ± 0.0065 | – | – |
| UCCUGGAUGUCGUCUGCAUAGUAUUUAGUUA | 0.00165 ± 0.0045 | 0.00907 ± 0.0032 | – | – |
| UCCUGCUACAGCUUGCAUAGAUAUUUAGUUA | 0.00142 ± 0.0066 | 0.00181 ± 0.0041 | – | – |
| UCCUGGAUGUCGAUGCAUAGAAUUUAGAUA | 0.000359 ± 0.016 | 0.000426 ± 0.015 | – | – |
| UCCUGGAUGUCGUUGCAUACAAUUUAGUUA | 0.000473 ± 0.014 | 0.000194 ± 0.017 | – | – |
| UCCUGGUACAGCUUCCAUUGUAUUUAGUUA | 0.0017 ± 0.0039 | 0.00136 ± 0.0058 | – | – |
| UCCUGGAUGUCCUUGCAUCAGUAUUUAGUUA | 0.000434 ± 0.019 | 0.0012 ± 0.0066 | – | – |
| UCCUGGAUGUCGUUGCAUACUAUUUAGAUA | 0.00049 ± 0.011 | 0.000185 ± 0.018 | – | – |
| UCCUGGAUGUCGUUGCAAAGUAUAUAGUUA | 0.000223 ± 0.02 | 0.000301 ± 0.013 | – | – |
| UCCUGGAUCAGCUUGGUAAGUAUUUUCAAA | – | 0.000295 ± 0.011 | – | 0.00081 ± 0.013 |
| UCCUGGAUGUCGUUGCAUAGUAUUUUAGUUA | 0.00102 ± 0.0078 | 0.000867 ± 0.015 | – | – |
| UCCUGGAUGUCCUUGCAUACAUAAAUCAAA [g12:g19:cont:t1A] | 0.000678 ± 0.013 | 0.000112 ± 0.038 | – | – |
| UCCUGGAUGUCGAUAGCAUAGUAUUUAGUUA | 0.00119 ± 0.0069 | 0.00284 ± 0.003 | – | – |
| UCCUGGAUGUCGAAGCAUAUAUUUAGUUA | – | 0.00031 ± 0.011 | – | 0.000543 ± 0.017 |
| UCCUGGAUGUCGAAGGAUAGUAUUUAGUAA | 0.00022 ± 0.021 | – | 0.000141 ± 0.06 | – |
| UCCUGGUACAGCUUGACAUAGUAUUUAGUUA | 0.00195 ± 0.0041 | – | 0.000234 ± 0.047 | – |
| UCCUGGAUCAGCUUCCAUUGUAUUUAGUUA | 0.00114 ± 0.0074 | 0.00234 ± 0.0024 | – | – |

2 successive entries out of the list so far:

| Sequence | pre-steady-state target cleavage rate [1, 3] | pre-steady-state target cleavage rate [2, 4] | pre-steady-state target cleavage rate [2, 5] | pre-steady-state target cleavage rate [1, 6] |
| --- | --- | --- | --- | --- |
| UCCUGGAUGUCGUUGCAUACAAUUUAGUUA | 0.000473 ± 0.014 | 0.000194 ± 0.017 | – | – |
| UCCUGGUACAGCUUCCAUUGUAUUUAGUUA | 0.0017 ± 0.0039 | 0.00136 ± 0.0058 | – | – |

(list continues)

| Sequence | pre-steady-state target cleavage rate [1, 3] | pre-steady-state target cleavage rate [2, 4] | pre-steady-state target cleavage rate [2, 5] | pre-steady-state target cleavage rate [1, 6] |
| --- | --- | --- | --- | --- |
| UCCUGGAUGUCGAUGCAUAGUAUUAUAGUUA | – | 0.00137 ± 0.0056 | – | 0.00214 ± 0.0056 |
| UCCUGGAUCAGCUUGCUAUGUAUUUAGUAA | 0.0014 ± 0.0032 | 0.000255 ± 0.012 | – | – |
| UCCUGGAUGUCGUUAGCAUAGUAUUUAGUUA | 0.00292 ± 0.0035 | 0.00456 ± 0.0035 | – | – |
| UCCUGGAUGUCCUUGCUUAGUAUUUAGUAA | 0.0016 ± 0.0032 | 0.000422 ± 0.0085 | – | – |
| UCCUGGAUGUCGGUGCAUAGUAUUUAGUUA | 0.0013 ± 0.0063 | 0.00511 ± 0.0033 | – | – |
| UCCUGGAUGUCGUUGCAUUCAUAAAUCAAA [g13:g18:cont:t1A] | 0.000108 ± 0.036 | 0.000152 ± 0.017 | – | – |
| UCCUCCUACAGCUUGCAUUCUAUUUACAAA | 0.00069 ± 0.01 | – | 0.000153 ± 0.026 | – |
| UCCUGGAUGUCGAACCAUAGUAUUUAGCUUA | – | 0.000219 ± 0.022 | – | 0.000157 ± 0.03 |
| UCCUGGUACAGCUUGCAUAGUAAUUACAAA | 0.00161 ± 0.0046 | – | 0.00018 ± 0.051 | – |
| UCCUGGAUGUCCUUGGAUAGUAUUUAGUAA | 0.0015 ± 0.0041 | 0.00188 ± 0.0048 | – | – |
| UCCUGGAUGUCGAACCAUAGCUAUUUAGUUA | 0.000228 ± 0.025 | < 0.0001 | – | – |
| UCCUGGUACAGCUUGCAUUCAUAAAUCAAA [g13:g24:cont:t1A] | 0.000834 ± 0.0093 | 0.000216 ± 0.019 | – | – |
| UCCUGGAUGUCCUUGGAUAGUAUUUUGUUA | 0.00174 ± 0.004 | 0.000553 ± 0.0076 | – | – |
| UCCUGGAUGUCGAUGCAUAGUAUUUGAGUUA | 0.000746 ± 0.0079 | 0.00103 ± 0.0076 | – | – |
| UCCUGGAUGUCGAACCAUAGUAUUUAGAUUA | – | 0.000352 ± 0.019 | – | 0.000338 ± 0.012 |
| UCCUGGAUGUCGAACCAUAGUAUGUUAGUUA | – | – | 0.000439 ± 0.015 | 0.000148 ± 0.04 |
| UCCUGGAUGUCGAAGCAUAGUAUUUAAGUUA | 0.0011 ± 0.0064 | 0.000171 ± 0.024 | – | – |
| UCCUGGAUGUCGAACCAUAGUAUUUAGUAA | 0.00033 ± 0.012 | 0.00043 ± 0.012 | – | – |
| UCCUGGAUCAGCUUGGAUAGUAUUUAGAAA | 0.00309 ± 0.0042 | 0.00249 ± 0.0024 | – | – |
